Source: patent US20050113418A1, “Administration of pharmaceuticals” (priority 1996, published 2005)
At least one structure is not confirmed: it was looked up by name or label, or the drawing left a doubt.

Columns and labels:
[1] = tested on: intragastric acidity; assay: Intragastric acidity in healthy subjects, 40 mg once daily vs 20 mg twice daily; format: in vivo, human; details: 20 mg twice daily 3 hours apart compared to single morning dose of 40 mg; first two days of treatment; eight healthy subjects
[2] = tested on: gastric acid secretion; details: cited from earlier work
[3] = tested on: peptone stimulated gastric acid secretion; assay: Peptone stimulated gastric acid secretion in healthy subjects, 40 mg once daily vs 20 mg twice daily; format: in vivo, human; details: 20 mg twice daily compared to 40 mg once daily; first three days of treatment; eight healthy subjects; FIG. 1

COc1ccc2[nH]c([S+]([O-])Cc3ncc(C)c(OC)c3C)nc2c1 (stereo not shown) [Omeprazole, omeprazole]
number of hours with high acidity (pH>1) [1]: significantly (p>0.05) lower | duration of acid inhibition ([2]; Lind et al, Gut 1983): 3 to 4 days | maximal gastric acid inhibition ([2]; increased dose quantity of the proton pump inhibitor): about 80% | degree of inhibition of peptone stimulated acid output 24 hours post dose [3]: significantly higher
